These are yes or no findings as the source states them, for the method shown. Binding seen in cells or lysates may run through a third protein. Some results given as binding are weak or reduced against the parent protein; the word gives no strength. For some assays here: Tags and fused reporters may be left off the sequences shown.
Columns and labels:
[1] = target: MAP2, long isoforms (high molecular weight MAP2), endogenous in mouse brain (mouse (endogenous in brain)) (UniProt P20357); assay: co-IP; anti-MAP2 (MAP2N) on Dynabeads Protein G; adult mouse brain lysate in microtubule stabilizing buffer (0.1 M MES pH 6.8, 10% glycerol, 0.5% Triton X-100, taxol, GTP); 30 min at 4 °C; rabbit IgG as negative control; blot for MAP2 and DHC1
[2] = target: T1, GFP-MAP2C (human MAP2C tagged with AcGFP and 6xHis, wild type), expressed in HEK293 cells (human) (UniProt P11137); assay: co-IP; anti-His antibody on Dynabeads Protein G; 500 μg lysate of HEK293 cells co-expressing DHC1 and GFP-His-MAP2C; 50 mM Hepes pH 7.4, 100 mM NaCl, 2 mM EDTA, 0.5% Triton X-100; 1 h at 4 °C; blot with anti-DHC1 and anti-GFP, bands quantified with ImageJ
T1 sequence: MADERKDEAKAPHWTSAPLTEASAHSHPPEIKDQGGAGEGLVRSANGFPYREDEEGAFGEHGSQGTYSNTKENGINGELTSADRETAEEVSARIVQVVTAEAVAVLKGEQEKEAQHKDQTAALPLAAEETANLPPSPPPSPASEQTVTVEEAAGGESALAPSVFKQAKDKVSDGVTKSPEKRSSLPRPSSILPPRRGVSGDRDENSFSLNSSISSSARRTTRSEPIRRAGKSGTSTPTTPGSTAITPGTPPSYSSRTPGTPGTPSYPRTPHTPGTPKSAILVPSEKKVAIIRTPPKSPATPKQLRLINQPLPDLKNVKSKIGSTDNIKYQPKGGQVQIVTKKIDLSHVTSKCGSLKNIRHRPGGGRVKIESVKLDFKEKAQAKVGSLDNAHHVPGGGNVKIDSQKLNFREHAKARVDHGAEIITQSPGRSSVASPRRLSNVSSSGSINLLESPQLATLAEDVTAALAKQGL

The chains behind the UniProt entries cited, without tags or fusion partners.
UniProt P20357: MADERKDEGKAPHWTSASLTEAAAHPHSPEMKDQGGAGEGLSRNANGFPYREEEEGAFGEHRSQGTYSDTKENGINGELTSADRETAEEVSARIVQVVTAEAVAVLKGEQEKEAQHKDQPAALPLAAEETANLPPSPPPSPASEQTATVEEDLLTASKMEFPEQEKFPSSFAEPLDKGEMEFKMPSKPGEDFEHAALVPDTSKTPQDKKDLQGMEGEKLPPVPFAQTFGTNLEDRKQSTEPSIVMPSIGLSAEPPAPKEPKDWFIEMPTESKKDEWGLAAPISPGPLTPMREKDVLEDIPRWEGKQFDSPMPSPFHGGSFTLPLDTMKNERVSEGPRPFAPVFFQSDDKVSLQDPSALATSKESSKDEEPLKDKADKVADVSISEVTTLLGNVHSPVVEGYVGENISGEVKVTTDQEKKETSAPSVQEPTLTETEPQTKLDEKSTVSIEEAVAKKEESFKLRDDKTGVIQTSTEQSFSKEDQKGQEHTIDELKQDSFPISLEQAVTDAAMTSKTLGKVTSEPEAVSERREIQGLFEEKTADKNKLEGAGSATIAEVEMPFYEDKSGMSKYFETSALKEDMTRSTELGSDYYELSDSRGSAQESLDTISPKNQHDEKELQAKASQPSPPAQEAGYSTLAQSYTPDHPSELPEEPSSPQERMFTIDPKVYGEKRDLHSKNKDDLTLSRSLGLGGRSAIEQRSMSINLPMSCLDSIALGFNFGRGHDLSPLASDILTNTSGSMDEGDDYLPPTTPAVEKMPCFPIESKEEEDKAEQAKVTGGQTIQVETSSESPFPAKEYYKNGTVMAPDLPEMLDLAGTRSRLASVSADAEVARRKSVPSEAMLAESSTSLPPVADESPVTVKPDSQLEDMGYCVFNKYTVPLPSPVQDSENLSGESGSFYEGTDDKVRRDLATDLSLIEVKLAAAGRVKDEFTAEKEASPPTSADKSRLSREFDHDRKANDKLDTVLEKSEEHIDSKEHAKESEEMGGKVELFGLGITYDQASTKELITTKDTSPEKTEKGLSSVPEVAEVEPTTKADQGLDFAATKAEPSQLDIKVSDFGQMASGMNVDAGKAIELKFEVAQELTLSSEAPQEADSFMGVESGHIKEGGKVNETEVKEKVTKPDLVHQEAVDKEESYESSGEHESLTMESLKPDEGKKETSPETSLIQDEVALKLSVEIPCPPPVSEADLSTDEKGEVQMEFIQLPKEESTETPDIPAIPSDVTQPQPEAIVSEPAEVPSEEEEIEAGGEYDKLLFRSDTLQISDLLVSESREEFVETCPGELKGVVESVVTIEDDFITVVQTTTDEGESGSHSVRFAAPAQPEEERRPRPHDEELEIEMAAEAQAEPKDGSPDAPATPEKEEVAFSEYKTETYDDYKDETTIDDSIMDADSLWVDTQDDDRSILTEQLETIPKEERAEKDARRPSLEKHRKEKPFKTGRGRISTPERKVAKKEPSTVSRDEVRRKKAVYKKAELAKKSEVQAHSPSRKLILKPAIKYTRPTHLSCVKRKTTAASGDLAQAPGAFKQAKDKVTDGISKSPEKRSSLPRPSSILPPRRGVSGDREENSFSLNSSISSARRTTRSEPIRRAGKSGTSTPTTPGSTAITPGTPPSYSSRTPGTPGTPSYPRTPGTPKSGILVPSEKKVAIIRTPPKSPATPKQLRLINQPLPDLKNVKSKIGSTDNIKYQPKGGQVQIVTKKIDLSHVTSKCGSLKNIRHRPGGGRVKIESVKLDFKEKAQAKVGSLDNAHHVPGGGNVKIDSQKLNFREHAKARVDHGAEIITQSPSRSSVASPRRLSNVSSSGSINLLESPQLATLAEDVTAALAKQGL
UniProt Q14204: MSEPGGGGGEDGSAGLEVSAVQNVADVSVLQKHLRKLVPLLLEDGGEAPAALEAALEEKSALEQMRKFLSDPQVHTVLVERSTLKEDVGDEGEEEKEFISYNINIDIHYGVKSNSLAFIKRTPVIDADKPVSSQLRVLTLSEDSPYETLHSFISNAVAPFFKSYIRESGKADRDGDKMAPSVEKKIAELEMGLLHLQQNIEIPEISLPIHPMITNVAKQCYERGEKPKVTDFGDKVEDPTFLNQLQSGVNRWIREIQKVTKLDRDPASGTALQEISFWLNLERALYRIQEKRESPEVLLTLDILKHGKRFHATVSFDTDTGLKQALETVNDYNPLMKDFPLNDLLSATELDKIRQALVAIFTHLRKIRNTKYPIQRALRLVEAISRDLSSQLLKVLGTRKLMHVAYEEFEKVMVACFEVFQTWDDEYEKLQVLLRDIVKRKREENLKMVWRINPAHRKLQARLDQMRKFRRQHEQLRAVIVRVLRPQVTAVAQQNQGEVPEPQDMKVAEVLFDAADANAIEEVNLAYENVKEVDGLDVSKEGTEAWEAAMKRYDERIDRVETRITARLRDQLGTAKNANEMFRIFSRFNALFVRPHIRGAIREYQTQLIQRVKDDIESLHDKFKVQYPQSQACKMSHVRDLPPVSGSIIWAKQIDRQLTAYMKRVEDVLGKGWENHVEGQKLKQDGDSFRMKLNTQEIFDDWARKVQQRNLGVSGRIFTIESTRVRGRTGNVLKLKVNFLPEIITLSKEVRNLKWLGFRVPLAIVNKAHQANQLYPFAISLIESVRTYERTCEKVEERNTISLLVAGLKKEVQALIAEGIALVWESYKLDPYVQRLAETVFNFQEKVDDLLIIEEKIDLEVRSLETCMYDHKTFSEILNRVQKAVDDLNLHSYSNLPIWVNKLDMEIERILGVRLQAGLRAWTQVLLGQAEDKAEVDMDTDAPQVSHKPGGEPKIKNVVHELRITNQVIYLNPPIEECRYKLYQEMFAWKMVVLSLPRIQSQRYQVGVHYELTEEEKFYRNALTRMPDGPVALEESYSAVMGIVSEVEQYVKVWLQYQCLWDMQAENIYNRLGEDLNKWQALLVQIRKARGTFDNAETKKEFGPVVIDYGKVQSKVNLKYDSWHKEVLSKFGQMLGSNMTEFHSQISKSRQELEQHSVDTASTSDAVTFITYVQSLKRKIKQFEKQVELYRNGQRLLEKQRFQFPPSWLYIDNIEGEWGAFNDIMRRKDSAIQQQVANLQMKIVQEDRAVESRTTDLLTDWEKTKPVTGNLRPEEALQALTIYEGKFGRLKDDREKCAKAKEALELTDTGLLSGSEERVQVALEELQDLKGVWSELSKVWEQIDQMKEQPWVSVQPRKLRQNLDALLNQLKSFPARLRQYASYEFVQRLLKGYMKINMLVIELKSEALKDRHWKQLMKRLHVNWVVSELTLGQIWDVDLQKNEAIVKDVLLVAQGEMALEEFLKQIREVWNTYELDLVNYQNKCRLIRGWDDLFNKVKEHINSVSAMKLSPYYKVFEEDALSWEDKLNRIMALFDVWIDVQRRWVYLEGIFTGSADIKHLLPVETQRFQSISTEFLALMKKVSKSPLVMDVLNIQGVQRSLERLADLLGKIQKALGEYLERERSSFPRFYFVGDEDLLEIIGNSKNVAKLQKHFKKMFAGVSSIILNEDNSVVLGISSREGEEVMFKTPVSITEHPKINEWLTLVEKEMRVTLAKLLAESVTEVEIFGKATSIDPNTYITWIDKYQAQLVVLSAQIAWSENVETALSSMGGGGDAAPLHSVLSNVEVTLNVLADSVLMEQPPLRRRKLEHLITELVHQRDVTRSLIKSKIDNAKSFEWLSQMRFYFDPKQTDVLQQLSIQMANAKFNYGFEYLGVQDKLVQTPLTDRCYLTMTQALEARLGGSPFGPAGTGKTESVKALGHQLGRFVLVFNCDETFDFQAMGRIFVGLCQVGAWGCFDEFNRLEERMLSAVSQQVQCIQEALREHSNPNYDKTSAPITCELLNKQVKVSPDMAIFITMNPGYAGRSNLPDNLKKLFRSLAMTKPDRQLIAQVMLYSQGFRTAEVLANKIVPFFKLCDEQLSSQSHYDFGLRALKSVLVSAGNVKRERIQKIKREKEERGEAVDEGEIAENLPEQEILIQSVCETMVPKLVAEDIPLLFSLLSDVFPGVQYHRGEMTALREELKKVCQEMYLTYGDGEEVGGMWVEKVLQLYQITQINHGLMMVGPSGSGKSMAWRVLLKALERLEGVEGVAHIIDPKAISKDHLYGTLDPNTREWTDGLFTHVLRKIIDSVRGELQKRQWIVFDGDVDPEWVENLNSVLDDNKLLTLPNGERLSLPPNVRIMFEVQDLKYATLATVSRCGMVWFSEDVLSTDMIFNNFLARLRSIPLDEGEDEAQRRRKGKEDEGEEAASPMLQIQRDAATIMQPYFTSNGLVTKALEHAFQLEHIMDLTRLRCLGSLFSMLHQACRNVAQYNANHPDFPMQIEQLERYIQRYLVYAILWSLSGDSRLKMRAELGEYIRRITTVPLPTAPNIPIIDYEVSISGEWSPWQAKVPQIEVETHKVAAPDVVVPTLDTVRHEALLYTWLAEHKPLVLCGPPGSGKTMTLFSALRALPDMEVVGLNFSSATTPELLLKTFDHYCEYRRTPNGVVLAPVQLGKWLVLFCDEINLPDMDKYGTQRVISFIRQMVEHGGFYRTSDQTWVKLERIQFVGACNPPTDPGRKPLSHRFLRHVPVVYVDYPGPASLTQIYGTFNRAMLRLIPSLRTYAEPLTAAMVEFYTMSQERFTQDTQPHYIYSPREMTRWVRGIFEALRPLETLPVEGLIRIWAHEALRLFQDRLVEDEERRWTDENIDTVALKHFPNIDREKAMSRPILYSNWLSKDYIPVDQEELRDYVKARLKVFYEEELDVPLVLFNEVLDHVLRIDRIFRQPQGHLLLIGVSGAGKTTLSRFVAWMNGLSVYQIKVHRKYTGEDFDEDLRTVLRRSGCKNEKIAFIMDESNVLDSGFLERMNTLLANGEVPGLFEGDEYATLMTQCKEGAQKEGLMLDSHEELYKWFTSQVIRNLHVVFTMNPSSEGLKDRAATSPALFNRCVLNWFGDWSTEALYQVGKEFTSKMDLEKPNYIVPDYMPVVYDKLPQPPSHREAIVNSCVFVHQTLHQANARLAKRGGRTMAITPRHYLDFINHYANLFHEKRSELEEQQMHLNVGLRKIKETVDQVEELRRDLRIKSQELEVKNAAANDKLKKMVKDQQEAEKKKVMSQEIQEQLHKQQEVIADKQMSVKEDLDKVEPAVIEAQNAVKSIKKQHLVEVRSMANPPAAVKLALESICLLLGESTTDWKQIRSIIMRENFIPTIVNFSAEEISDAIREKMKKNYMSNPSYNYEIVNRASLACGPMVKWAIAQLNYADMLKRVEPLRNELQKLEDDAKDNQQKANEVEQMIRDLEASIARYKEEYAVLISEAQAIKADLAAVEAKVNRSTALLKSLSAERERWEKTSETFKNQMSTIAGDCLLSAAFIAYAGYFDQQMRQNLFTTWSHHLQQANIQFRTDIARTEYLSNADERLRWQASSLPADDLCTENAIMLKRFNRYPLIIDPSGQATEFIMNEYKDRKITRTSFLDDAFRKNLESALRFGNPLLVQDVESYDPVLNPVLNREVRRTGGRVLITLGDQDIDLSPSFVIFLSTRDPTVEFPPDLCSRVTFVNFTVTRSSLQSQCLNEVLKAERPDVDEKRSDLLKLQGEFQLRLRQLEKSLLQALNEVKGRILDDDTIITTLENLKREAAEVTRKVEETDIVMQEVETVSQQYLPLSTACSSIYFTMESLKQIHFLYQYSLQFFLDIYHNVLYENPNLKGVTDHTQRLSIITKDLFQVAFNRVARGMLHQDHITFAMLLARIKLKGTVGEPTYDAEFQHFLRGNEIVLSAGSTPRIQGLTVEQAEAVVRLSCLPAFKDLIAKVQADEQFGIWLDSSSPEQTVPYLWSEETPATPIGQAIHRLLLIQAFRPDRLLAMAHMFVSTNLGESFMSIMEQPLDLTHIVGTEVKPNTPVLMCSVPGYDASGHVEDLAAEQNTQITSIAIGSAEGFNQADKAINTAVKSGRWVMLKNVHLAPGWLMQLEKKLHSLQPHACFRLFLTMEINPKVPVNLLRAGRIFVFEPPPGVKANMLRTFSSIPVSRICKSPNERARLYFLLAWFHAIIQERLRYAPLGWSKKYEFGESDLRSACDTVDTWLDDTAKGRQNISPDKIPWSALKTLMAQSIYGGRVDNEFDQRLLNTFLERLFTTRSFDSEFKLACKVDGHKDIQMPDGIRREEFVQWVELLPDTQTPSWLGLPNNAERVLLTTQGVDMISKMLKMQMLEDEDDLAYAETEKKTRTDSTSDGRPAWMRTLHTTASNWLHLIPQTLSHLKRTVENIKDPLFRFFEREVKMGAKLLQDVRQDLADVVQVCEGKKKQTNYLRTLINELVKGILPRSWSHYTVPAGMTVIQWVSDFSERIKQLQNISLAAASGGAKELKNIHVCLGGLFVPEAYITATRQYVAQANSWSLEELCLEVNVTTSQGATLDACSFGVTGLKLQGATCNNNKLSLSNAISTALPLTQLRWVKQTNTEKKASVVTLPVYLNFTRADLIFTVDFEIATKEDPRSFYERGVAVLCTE

Substance: cytoplasmic dynein heavy chain 1 (DHC1), endogenous in mouse brain (from UniProt Q9JHU4 1-4644)
- binding [1]: binds

Substance: cytoplasmic dynein heavy chain 1 (DHC1), expressed from a plasmid in HEK293 cells (from UniProt Q14204 1-4646)
- binding [2]: binds

Reference: publication PMC13571933, “Active transport by cytoplasmic dynein sustains dendritic MAP2 localization in developing neurons” (The Journal of Biological Chemistry, 2026)
